The values that follow come from doi:10.1101/2023.09.06.556483.

This assay deals with PICLN (Arabidopsis) (Arabidopsis thaliana). Put plainly: two-hybrid.

Results are given in words; binding and its absence hold for the method and conditions named.

B1: AtPRMT7 (enzyme, UniProt Q944R7 1-724)
chain: MSPLSSLPPKTFISSFHCHSVTRLRRSVTARTMSSQSSQRVFQLRQDPLTGNSEWIVIEDNDQPGTSTDGLLATTSYLDMLNDSRRNIAYRLAIEKTITEPCHVLDIGAGTGLLSMMAVRAMRGDSKGMVTACESYLPMVKLMRKVMHKNGMTKNINLINKRSDELKVGSEDIASRADVLVSEILDSELLGEGLIPSLQHAHDMLLVDNPKTVPYRATTYCQLVESTFLCNLQDLRNNEAKTSDGVRLVPPGLESLFGIKSQQYSMHVDAIEKEIKLLSEPVKIFEFDFWKRPESNGELDVHIEAKTTGSVHAIISWWVLQLDSEGTIFYSTAPRWIDSNSEIGVRDWCDHWKQCVWFTPGTGVSISKGEKVHLHASHTCTNILYNLKKTQSLTHERTHFPLSTGDLHLTLPPERVAIYGDSIYRQSLFEATRKALQGKSYPQCLVIDDSLLLPLMALHISNRSRVLSLSPGLQENAARYFEAIADSNGFSKDRFEYFRDGKTNLAKAYPGKIDLLIGEPYYSGLENGLPWQNLRFWKDRTLLDSVLSEDAVVMPYKGVLRGCAMYLPDLWKSRCCLGSVEGFDHTLVNTTLGGCGDLPSGKDSPCLPFFIWQCGETKILSKEFTVMEFDFSKPITGPCSGEVQIEFIKPGVCHGIALWMDWVMDEENSTVISTGPDDKYWKQGVKLLGKPVTVRMEGPSSSIGIQASLDLSSNSELIVTHTIS
B1: the binding entry is listed as “no binding”.
